Consider one substance from PMC8972991.

The assay deals with T1, Snakin-2 (StSN2) (potato (endogenous in tubers)) (UniProt Q93X17).
T1 sequence: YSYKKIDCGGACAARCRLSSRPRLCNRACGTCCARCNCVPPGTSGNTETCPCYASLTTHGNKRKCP
The assay can be described thus: affinity purification with mass spectrometry; CoIP/MS screen for proteins interacting with StSN2; gel pieces from the CoIP after SDS-PAGE digested with trypsin, MS/MS (Orbitrap); precipitating antibody of the screen not stated.

Results are given in words; binding and its absence hold for the method and conditions named. In cells and extracts the contact can be indirect. These calls come from enrichment with a bait or labelling near it, and not all partners need be listed.

Take “Cytoplasmic glyceraldehyde-3-phosphate dehydrogenase 1 (StGAPC1) (potato (endogenous in tubers)) (enzyme)”: the binding entry is listed as “binds”.
